Measured data: PubChem BioAssay AID504774 (Drosophila RNAi Screening Center, 2011)

- Aim: 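Fly genes whose loss alters survival after alkylation damage to DNA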 (primary screen)
- System: Drosophila Kc167 cells
- Reagent: long dsRNA against Drosophila genes, about 0.25 µg dsRNA per well
- Duration: about 6 days: 3 days knock-down, then 3 days with or without MMS
- Conditions: methyl methanesulphonate 0.004% (w/v) for 3 days after knock-down
- Read-out: 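ATP-dependent luminescence as a measure of live cells in MMS-exposed wells, quantile normalised within each plate, with replicate values also given as a mean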
- Scale: mean viability with MMS and viability with MMS: higher = more surviving cells after MMS
The deposit covers about 23,000 reagents; below is a random part of those that have a named target and a result. 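Values are quantile-normalised luminescence on an arbitrary scale; higher means more cells surviving MMS.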 Not all columns of the deposit are shown.

CG9593 [DRSC16508] | mean viability with MMS: 3.69e6; viability with MMS, replicate 1: 4.25e6
ppk5 (pickpocket 5) [DRSC11492] | mean viability with MMS: 3.53e6; viability with MMS, replicate 1: 3.96e6
CG34328 [DRSC19256] | mean viability with MMS: 3.40e6; viability with MMS, replicate 1: 3.89e6
Prosbeta6 (Proteasome beta6 subunit) [DRSC11256] | mean viability with MMS: 3.23e6; viability with MMS, replicate 1: 3.71e6
HmgZ (HMG protein Z) [DRSC03888] | mean viability with MMS: 3.30e6; viability with MMS, replicate 1: 3.79e6
HmgZ (HMG protein Z) [DRSC04620] | mean viability with MMS: 3.53e6; viability with MMS, replicate 1: 3.88e6
BomS1 (Bomanin Short 1) [DRSC22678] | mean viability with MMS: 3.59e6; viability with MMS, replicate 1: 4.04e6
Ir7e (Ionotropic receptor 7e) [DRSC18011] | mean viability with MMS: 1.65e6; viability with MMS, replicate 1: 3.73e6
TrpRS-m (Tryptophanyl-tRNA synthetase, mitochondrial) [DRSC10848] | mean viability with MMS: 3.49e6; viability with MMS, replicate 1: 3.96e6
CG5196 [DRSC15735] | mean viability with MMS: 3.57e6; viability with MMS, replicate 1: 4.00e6
pdm2 (POU domain protein 2) [DRSC02496] | mean viability with MMS: 3.55e6; viability with MMS, replicate 1: 4.07e6
pdm2 (POU domain protein 2) [DRSC02497] | mean viability with MMS: 3.35e6; viability with MMS, replicate 1: 3.74e6
pdm2 (POU domain protein 2) [DRSC03587] | mean viability with MMS: 3.46e6; viability with MMS, replicate 1: 3.93e6
CG30460 [DRSC06559] | mean viability with MMS: 3.53e6; viability with MMS, replicate 1: 4.14e6
CG30460 [DRSC06560] | mean viability with MMS: 2.83e6; viability with MMS, replicate 1: 3.52e6
CG30460 [DRSC23115] | mean viability with MMS: 3.75e6; viability with MMS, replicate 1: 4.32e6
Topors (Topoisomerase I-interacting protein) [DRSC06531] | mean viability with MMS: 3.63e6; viability with MMS, replicate 1: 4.27e6
Hnf4 (Hepatocyte nuclear factor 4) [DRSC01032] | mean viability with MMS: 3.57e6; viability with MMS, replicate 1: 4.05e6
Hnf4 (Hepatocyte nuclear factor 4) [DRSC03344] | mean viability with MMS: 1.82e6; viability with MMS, replicate 1: 4.03e6
CG4306 [DRSC10409] | mean viability with MMS: 3.58e6; viability with MMS, replicate 1: 4.05e6
Rh4 (Rhodopsin 4) [DRSC11268] | mean viability with MMS: 3.56e6; viability with MMS, replicate 1: 4.05e6
rod (rough deal) [DRSC17047] | mean viability with MMS: 3.43e6; viability with MMS, replicate 1: 3.84e6
CG5810 [DRSC15880] | mean viability with MMS: 3.42e6; viability with MMS, replicate 1: 3.86e6
CG5810 [DRSC21921] | mean viability with MMS: 3.55e6; viability with MMS, replicate 1: 4.03e6
CG30371 [DRSC06835] | mean viability with MMS: 3.53e6; viability with MMS, replicate 1: 4.03e6
CG31371 [DRSC15079] | mean viability with MMS: 3.57e6; viability with MMS, replicate 1: 4.06e6
Tdc2 (Tyrosine decarboxylase 2) [DRSC04999] | mean viability with MMS: 3.31e6; viability with MMS, replicate 1: 3.68e6
CG43325 [DRSC04157] | mean viability with MMS: 3.67e6; viability with MMS, replicate 1: 4.13e6
zda (zonda) [DRSC06936] | mean viability with MMS: 3.46e6; viability with MMS, replicate 1: 3.89e6
Mitf [DRSC17212] | mean viability with MMS: 3.80e6; viability with MMS, replicate 1: 4.28e6
Mitf [DRSC21056] | mean viability with MMS: 3.54e6; viability with MMS, replicate 1: 4.12e6
Rab9 [DRSC03281] | mean viability with MMS: 3.62e6; viability with MMS, replicate 1: 4.11e6
ND-51 (NADH dehydrogenase (ubiquinone) 51 kDa subunit) [DRSC03145] | mean viability with MMS: 3.45e6; viability with MMS, replicate 1: 3.86e6
cdm (cadmus) [DRSC16213] | mean viability with MMS: 3.57e6; viability with MMS, replicate 1: 4.03e6
CG11529 [DRSC09839] | mean viability with MMS: 3.38e6; viability with MMS, replicate 1: 3.72e6

Ordered by “mean viability with MMS” (highest first): some entries from above
CG9593 [DRSC16508] | mean viability with MMS: 3.69e6; viability with MMS, replicate 1: 4.25e6
ppk5 (pickpocket 5) [DRSC11492] | mean viability with MMS: 3.53e6; viability with MMS, replicate 1: 3.96e6
CG34328 [DRSC19256] | mean viability with MMS: 3.40e6; viability with MMS, replicate 1: 3.89e6
HmgZ (HMG protein Z) [DRSC03888] | mean viability with MMS: 3.30e6; viability with MMS, replicate 1: 3.79e6
Prosbeta6 (Proteasome beta6 subunit) [DRSC11256] | mean viability with MMS: 3.23e6; viability with MMS, replicate 1: 3.71e6
